# Some of the results follow.
# B1: Surfactant Protein D (Human); Neck + Carbohydrate Recognition Domain (NCRD) (Homo sapiens) (protein)
# chain: MLLFLLSALVLLTQPLGYLEAEMKTYSHRTMPSACTLVMCSSVESGLPGRDRDGREGPRGEKGDPGLPGAAGQAGMPGQAGPVGPKGDNGSVGEPGPKGDTGPSGPPGPPGVPGPAGREGALGKQGNIGPQGKPGPKGEAGPKGEVGAPGMQGSAGARGLAGPKGERGVPGERGVPGNTGAAGSAGAMGPQGSPGARGPPGLKGDKGIPGDKGAKGESGLPDVASLRQQVEALQGQVQHLQAAFSQYKKVELFPNGQSVGEKIFKTAQFVKPFTEAQLLCTQAGGQLASPRSAAENAALQQLVVAKNEAAFLSMTDSKTEGKFTYPTGESLVYSNWAPGKPNDDGGSEDCVEIFTNGKWNDRACGEKRLVVCEF
# Legend:
# Assay in all cases: glycan array binding signal (z-score within array); higher = stronger binding
# Conditions in all cases: glycan notation: IUPAC condensed, linker removed; mutation: E321K
# [1] = target: Neu5Ac(a2-6)Gal(b1-4)GlcNAc(b1-2)Man(a1-3)[Gal(b1-4)GlcNAc(b1-2)Man(a1-6)]Man(b1-4)GlcNAc(b1-4)GlcNAc
# Summary of the method: (§1)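 Arrays were curated from the Consortium for Functional Glycomics database, 3228 in total, and kept only where the protein sequence was available. Binding is expressed as a within-array Z-score. This score was averaged across arrays of the same protein sequence at different concentrations or buffers and across linkers, and negative values can be read as non-binding.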
# [2] = target: Neu5Ac(a2-6)Gal(b1-4)GlcNAc(b1-2)Man(a1-3)[GlcNAc(b1-2)Man(a1-6)]Man(b1-4)GlcNAc(b1-4)GlcNAc
# Summary of the method: as §1
# [3] = target: Neu5Ac(a2-6)Gal(b1-4)GlcNAc(b1-2)Man(a1-3)[GlcNAc(b1-2)Man(b1-4)GlcNAc(b1-2)Man(a1-6)]Man(b1-4)GlcNAc(b1-4)GlcNAc
# Summary of the method: as §1
# [4] = target: Neu5Ac(a2-6)Gal(b1-4)GlcNAc(b1-2)Man(a1-3)[Neu5Ac(a2-6)Gal(b1-4)GlcNAc(b1-2)Man(a1-6)]Man(b1-4)GlcNAc(b1-4)GlcNAc
# Summary of the method: as §1
# [5] = target: Neu5Ac(a2-6)Gal(b1-4)GlcNAc(b1-2)Man(a1-6)[Gal(b1-4)GlcNAc(b1-2)Man(a1-3)]Man(b1-4)GlcNAc(b1-4)GlcNAc
# Summary of the method: as §1
# [6] = target: Neu5Ac(a2-6)Gal(b1-4)GlcNAc(b1-2)Man(a1-6)[GlcNAc(b1-2)Man(a1-3)]Man(b1-4)GlcNAc(b1-4)GlcNAc
# Summary of the method: as §1
# [7] = target: Neu5Ac(a2-6)Gal(b1-4)GlcNAc(b1-3)Gal(b1-4)GlcNAc
# Summary of the method: as §1
# [8] = target: Neu5Ac(a2-6)Gal(b1-4)GlcNAc(b1-3)Gal(b1-4)[Fuc(a1-3)]GlcNAc(b1-3)Gal(b1-4)[Fuc(a1-3)]GlcNAc
# Summary of the method: as §1
# [9] = target: Neu5Ac(a2-6)Gal(b1-4)GlcNAc6S
# Summary of the method: as §1
# Neu5Ac(a2-6)GalNAc = target: Neu5Ac(a2-6)GalNAc
# Summary of the method: as §1
# [10] = target: Neu5Ac(a2-6)GalNAc(b1-4)GlcNAc
# Summary of the method: as §1
# Neu5Ac(a2-8)Neu5Ac = target: Neu5Ac(a2-8)Neu5Ac
# Summary of the method: as §1
# [11] = target: Neu5Ac(a2-8)Neu5Ac(a2-3)Gal(b1-4)Glc
# Summary of the method: as §1
# [12] = target: Neu5Ac(a2-8)Neu5Ac(a2-3)[GalNAc(b1-4)]Gal(b1-4)Glc
# Summary of the method: as §1
# [13] = target: Neu5Ac(a2-8)Neu5Ac(a2-8)Neu5Ac
# Summary of the method: as §1
# [14] = target: Neu5Ac(a2-8)Neu5Ac(a2-8)Neu5Ac(a2-3)Gal(b1-4)Glc
# Summary of the method: as §1
# [15] = target: Neu5Ac(a2-8)Neu5Ac(a2-8)Neu5Ac(a2-3)[GalNAc(b1-4)]Gal(b1-4)Glc
# Summary of the method: as §1
# [16] = target: Neu5Ac(a2-8)Neu5Ac(a2-8)Neu5Ac(a2-8)Neu5Ac(a2-3)[GalNAc(b1-4)]Gal(b1-4)Glc
# Summary of the method: as §1
# [17] = target: Neu5Ac(b2-6)Gal(b1-4)GlcNAc
# Summary of the method: as §1
# Neu5Ac(b2-6)GalNAc = target: Neu5Ac(b2-6)GalNAc
# Summary of the method: as §1
# [18] = target: Neu5Ac9Ac(a2-6)Gal(b1-4)GlcNAc
# Summary of the method: as §1
# [19] = target: Neu5Gc(a2-3)Gal(b1-3)GlcNAc
# Summary of the method: as §1
# [20] = target: Neu5Gc(a2-3)Gal(b1-3)[Fuc(a1-4)]GlcNAc
# Summary of the method: as §1
# Neu5Gc(a2-3)Gal(b1-4)Glc = target: Neu5Gc(a2-3)Gal(b1-4)Glc
# Summary of the method: as §1
# [21] = target: Neu5Gc(a2-3)Gal(b1-4)GlcNAc
# Summary of the method: as §1
# [22] = target: Neu5Gc(a2-3)Gal(b1-4)[Fuc(a1-3)]GlcNAc
# Summary of the method: as §1
# [23] = target: Neu5Gc(a2-6)Gal(b1-4)GlcNAc
# Summary of the method: as §1
# Neu5Gc(a2-6)GalNAc = target: Neu5Gc(a2-6)GalNAc
# Summary of the method: as §1
# [24] = target: Neu5Gc(b2-6)Gal(b1-4)GlcNAc
# Summary of the method: as §1
binder,measurement,setting,value
B1,glycan array binding signal (z-score),[1],-0.145
same,glycan array binding signal (z-score),[2],0.141
same,glycan array binding signal (z-score),[3],5.34
same,glycan array binding signal (z-score),[4],-0.334
same,glycan array binding signal (z-score),[5],-0.67
same,glycan array binding signal (z-score),[6],-0.556
same,glycan array binding signal (z-score),[7],-0.587
same,glycan array binding signal (z-score),[8],-0.093
same,glycan array binding signal (z-score),[9],1.05
same,glycan array binding signal (z-score),Neu5Ac(a2-6)GalNAc,-0.188
same,glycan array binding signal (z-score),[10],0.412
same,glycan array binding signal (z-score),Neu5Ac(a2-8)Neu5Ac,0.491
same,glycan array binding signal (z-score),[11],-0.938
same,glycan array binding signal (z-score),[12],-0.563
same,glycan array binding signal (z-score),[13],-0.381
same,glycan array binding signal (z-score),[14],-0.475
same,glycan array binding signal (z-score),[15],0.225
same,glycan array binding signal (z-score),[16],-0.482
same,glycan array binding signal (z-score),[17],-0.057
same,glycan array binding signal (z-score),Neu5Ac(b2-6)GalNAc,3.67
same,glycan array binding signal (z-score),[18],-0.118
same,glycan array binding signal (z-score),[19],0.207
same,glycan array binding signal (z-score),[20],-0.22
same,glycan array binding signal (z-score),Neu5Gc(a2-3)Gal(b1-4)Glc,-0.993
same,glycan array binding signal (z-score),[21],0.239
same,glycan array binding signal (z-score),[22],-0.117
same,glycan array binding signal (z-score),[23],-0.918
same,glycan array binding signal (z-score),Neu5Gc(a2-6)GalNAc,0.65
same,glycan array binding signal (z-score),[24],-0.334

# Reformatted with bars between the fields: entries from further up.
binder | measurement | setting | value
B1 | glycan array binding signal (z-score) | [12] | -0.563
same | glycan array binding signal (z-score) | [13] | -0.381

# — the supplement of paper PMC8728848
